Measured values from article PMC9582515.
No constants are given. Whether binding was seen depends on the method and setting. Binding seen in cells or lysates may run through a third protein. These calls come from enrichment with a bait or labelling near it, and not all partners need be listed.

B1: PFKL (phosphofructokinase, liver type), in HCC cell lysate (enzyme, UniProt P17858 1-780)
chain: MAAVDLEKLRASGAGKAIGVLTSGGDAQGMNAAVRAVTRMGIYVGAKVFLIYEGYEGLVEGGENIKQANWLSVSNIIQLGGTIIGSARCKAFTTREGRRAAAYNLVQHGITNLCVIGGDGSLTGANIFRSEWGSLLEELVAEGKISETTARTYSHLNIAGLVGSIDNDFCGTDMTIGTDSALHRIMEVIDAITTTAQSHQRTFVLEVMGRHCGYLALVSALASGADWLFIPEAPPEDGWENFMCERLGETRSRGSRLNIIIIAEGAIDRNGKPISSSYVKDLVVQRLGFDTRVTVLGHVQRGGTPSAFDRILSSKMGMEAVMALLEATPDTPACVVTLSGNQSVRLPLMECVQMTKEVQKAMDDKRFDEATQLRGGSFENNWNIYKLLAHQKPPKEKSNFSLAILNVGAPAAGMNAAVRSAVRTGISHGHTVYVVHDGFEGLAKGQVQEVGWHDVAGWLGRGGSMLGTKRTLPKGQLESIVENIRIYGIHALLVVGGFEAYEGVLQLVEARGRYEELCIVMCVIPATISNNVPGTDFSLGSDTAVNAAMESCDRIKQSASGTKRRVFIVETMGGYCGYLATVTGIAVGADAAYVFEDPFNIHDLKVNVEHMTEKMKTDIQRGLVLRNEKCHDYYTTEFLYNLYSSEGKGVFDCRTNVLGHLQQGGAPTPFDRNYGTKLGVKAMLWLSEKLREVYRKGRVFANAPDSACVIGLKKKAVAFSPVTELKKDTDFEHRMPREQWWLSLRLMLKMLAQYRISMAAYVSGELEHVTRRTLSMDKGF
B2: USP39 (deubiquitination protein), in HCC cell lysate (protein, UniProt Q53GS9 1-565)
chain: MSGRSKRESRGSTRGKRESESRGSSGRVKRERDREREPEAASSRGSPVRVKREFEPASAREAPASVVPFVRVKREREVDEDSEPEREVRAKNGRVDSEDRRSRHCPYLDTINRSVLDFDFEKLCSISLSHINAYACLVCGKYFQGRGLKSHAYIHSVQFSHHVFLNLHTLKFYCLPDNYEIIDSSLEDITYVLKPTFTKQQIANLDKQAKLSRAYDGTTYLPGIVGLNNIKANDYANAVLQALSNVPPLRNYFLEEDNYKNIKRPPGDIMFLLVQRFGELMRKLWNPRNFKAHVSPHEMLQAVVLCSKKTFQITKQGDGVDFLSWFLNALHSALGGTKKKKKTIVTDVFQGSMRIFTKKLPHPDLPAEEKEQLLHNDEYQETMVESTFMYLTLDLPTAPLYKDEKEQLIIPQVPLFNILAKFNGITEKEYKTYKENFLKRFQLTKLPPYLIFCIKRFTKNNFFVEKNPTIVNFPITNVDLREYLSEEVQAVHKNTTYDLIANIVHDGKPSEGSYRIHVLHHGTGKWYELQDLQVTDILPQMITLSEAYIQIWKRRDNDETNQQGA

Molecular target: T1, Dynein axonemal assembly factor 5 (DNAAF5), in HCC cell lysate (human) (UniProt Q86Y56)
T1 sequence: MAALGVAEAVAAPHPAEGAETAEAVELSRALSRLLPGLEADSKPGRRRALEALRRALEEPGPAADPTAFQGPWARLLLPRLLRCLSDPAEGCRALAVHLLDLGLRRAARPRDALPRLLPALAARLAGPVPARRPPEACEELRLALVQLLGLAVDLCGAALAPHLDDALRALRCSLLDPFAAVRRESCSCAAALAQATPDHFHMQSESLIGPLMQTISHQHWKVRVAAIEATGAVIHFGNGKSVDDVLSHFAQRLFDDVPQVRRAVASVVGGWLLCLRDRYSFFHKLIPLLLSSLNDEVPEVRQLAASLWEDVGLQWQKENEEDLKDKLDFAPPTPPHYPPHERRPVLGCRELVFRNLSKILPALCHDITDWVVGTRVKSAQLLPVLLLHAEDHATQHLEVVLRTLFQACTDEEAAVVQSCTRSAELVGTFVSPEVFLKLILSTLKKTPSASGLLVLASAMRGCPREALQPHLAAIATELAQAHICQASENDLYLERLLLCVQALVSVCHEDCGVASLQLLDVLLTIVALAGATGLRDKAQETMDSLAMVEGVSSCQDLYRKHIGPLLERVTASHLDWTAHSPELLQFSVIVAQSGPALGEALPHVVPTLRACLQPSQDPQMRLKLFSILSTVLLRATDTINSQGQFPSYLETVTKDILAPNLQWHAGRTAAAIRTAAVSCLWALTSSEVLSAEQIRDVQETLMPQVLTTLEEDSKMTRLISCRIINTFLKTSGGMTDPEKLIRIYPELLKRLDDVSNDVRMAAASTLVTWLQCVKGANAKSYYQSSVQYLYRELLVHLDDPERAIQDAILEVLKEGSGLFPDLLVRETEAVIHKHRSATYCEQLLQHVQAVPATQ
Assay: affinity purification with mass spectrometry; co-immunoprecipitation of DNAAF5 followed by mass spectrometry of interacting proteins; cells not given

Binder | binding
B1 | binds
B2 | binds
